Data reported in patent US20040110684A1.
Results are given in words; binding and its absence hold for the method and conditions named. For some of these results: Binding seen in cells or lysates may run through a third protein. Some results given as binding are weak or reduced against the parent protein; the word gives no strength.

Chains of the proteins cited; added tags and fusions are not shown. Residues count along the entry.
UniProt P08238, residues 2-724: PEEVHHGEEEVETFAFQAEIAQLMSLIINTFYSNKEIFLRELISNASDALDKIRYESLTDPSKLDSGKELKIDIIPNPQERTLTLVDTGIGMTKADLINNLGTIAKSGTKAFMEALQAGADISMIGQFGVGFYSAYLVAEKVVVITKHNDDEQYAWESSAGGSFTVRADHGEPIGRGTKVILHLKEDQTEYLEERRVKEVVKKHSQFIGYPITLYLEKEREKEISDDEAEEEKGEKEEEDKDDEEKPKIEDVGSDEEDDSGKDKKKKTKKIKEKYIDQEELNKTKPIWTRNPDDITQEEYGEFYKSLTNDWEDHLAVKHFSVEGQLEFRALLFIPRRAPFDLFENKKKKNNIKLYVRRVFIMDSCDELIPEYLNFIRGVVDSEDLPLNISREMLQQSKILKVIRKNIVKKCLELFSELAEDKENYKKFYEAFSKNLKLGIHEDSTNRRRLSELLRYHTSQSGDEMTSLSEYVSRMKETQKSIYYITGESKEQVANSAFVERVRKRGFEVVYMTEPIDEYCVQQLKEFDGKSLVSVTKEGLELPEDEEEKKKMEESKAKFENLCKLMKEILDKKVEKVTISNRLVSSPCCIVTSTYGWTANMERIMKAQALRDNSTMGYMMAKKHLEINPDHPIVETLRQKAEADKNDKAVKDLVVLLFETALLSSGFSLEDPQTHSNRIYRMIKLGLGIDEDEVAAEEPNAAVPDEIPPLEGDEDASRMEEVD
UniProt P31749: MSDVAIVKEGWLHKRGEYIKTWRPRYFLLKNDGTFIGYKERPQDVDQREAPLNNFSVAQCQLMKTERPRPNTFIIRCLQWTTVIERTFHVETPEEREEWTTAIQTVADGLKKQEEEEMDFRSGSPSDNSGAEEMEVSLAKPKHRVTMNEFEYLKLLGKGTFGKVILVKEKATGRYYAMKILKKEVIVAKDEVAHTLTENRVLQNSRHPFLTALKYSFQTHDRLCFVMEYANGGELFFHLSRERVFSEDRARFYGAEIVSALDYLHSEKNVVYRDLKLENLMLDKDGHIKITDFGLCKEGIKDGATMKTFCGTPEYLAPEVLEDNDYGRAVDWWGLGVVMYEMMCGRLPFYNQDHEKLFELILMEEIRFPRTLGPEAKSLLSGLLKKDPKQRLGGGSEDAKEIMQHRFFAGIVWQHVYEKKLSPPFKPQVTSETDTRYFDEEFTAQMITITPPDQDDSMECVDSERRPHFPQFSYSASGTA

Legend:
[1] = molecular target: hsp90, endogenous, human umbilical vein endothelial cells (HUVECs) (human) (UniProt P08238); test: co-IP, geldanamycin-treated HUVEC lysates (recap in the discussion of Example 4)
[2] = molecular target: Akt, endogenous, human umbilical vein endothelial cells (HUVECs) (human) (UniProt P31749); test: co-IP time course, HUVEC lysates
[3] = molecular target: T1, endothelial nitric oxide synthase (eNOS), endogenous, human umbilical vein endothelial cells (HUVECs) (human) (UniProt P29474); test: co-IP time course, HUVEC lysates
T1 sequence (looked up): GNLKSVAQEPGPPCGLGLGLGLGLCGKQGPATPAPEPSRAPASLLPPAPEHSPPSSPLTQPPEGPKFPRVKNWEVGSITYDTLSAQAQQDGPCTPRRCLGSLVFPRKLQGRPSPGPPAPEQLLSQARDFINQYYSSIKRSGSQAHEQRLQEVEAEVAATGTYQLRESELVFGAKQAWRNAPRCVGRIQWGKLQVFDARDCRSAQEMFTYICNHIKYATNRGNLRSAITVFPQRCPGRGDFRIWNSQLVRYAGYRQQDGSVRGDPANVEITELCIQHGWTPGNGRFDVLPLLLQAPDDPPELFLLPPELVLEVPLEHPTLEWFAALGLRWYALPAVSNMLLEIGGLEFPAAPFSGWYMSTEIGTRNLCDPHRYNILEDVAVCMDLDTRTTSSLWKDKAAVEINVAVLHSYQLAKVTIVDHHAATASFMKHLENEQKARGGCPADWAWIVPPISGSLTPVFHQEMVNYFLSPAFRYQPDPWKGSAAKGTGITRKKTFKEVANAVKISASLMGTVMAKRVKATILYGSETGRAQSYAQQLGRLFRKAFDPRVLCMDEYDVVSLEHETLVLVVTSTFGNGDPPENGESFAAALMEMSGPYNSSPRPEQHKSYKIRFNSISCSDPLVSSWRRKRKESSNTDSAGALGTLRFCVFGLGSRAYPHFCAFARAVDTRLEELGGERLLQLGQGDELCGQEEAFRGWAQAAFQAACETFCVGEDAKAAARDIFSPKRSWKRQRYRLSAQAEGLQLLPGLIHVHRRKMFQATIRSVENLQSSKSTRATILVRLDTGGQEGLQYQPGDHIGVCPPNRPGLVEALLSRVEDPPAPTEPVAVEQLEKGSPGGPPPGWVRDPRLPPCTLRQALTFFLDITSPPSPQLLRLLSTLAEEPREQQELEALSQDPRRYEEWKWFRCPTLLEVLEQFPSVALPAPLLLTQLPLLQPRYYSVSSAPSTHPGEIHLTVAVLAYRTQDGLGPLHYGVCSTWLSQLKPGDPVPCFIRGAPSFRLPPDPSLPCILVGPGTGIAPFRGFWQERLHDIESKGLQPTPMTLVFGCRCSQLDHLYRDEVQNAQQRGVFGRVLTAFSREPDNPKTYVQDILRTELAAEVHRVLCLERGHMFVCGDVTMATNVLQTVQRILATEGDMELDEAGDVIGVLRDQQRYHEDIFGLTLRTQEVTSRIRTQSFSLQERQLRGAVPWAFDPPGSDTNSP

[4] = molecular target: T1, endothelial nitric oxide synthase (eNOS), endogenous, human umbilical vein endothelial cells (HUVECs) (human); test: eNOS IP, hsp90 immunoblot, VEGF-treated HUVEC lysates
[5] = molecular target: T1, endothelial nitric oxide synthase (eNOS), endogenous, human umbilical vein endothelial cells (HUVECs) (human); test: eNOS IP, hsp90 immunoblot, HUVEC lysates
[6] = molecular target: T1, endothelial nitric oxide synthase (eNOS), endogenous, human umbilical vein endothelial cells (HUVECs) (human); test: hsp90 IP, eNOS immunoblot, with residual eNOS in the supernatant; HUVECs after 5 min VEGF
[7] = molecular target: T1, endothelial nitric oxide synthase (eNOS), endogenous, human umbilical vein endothelial cells (HUVECs) (human); test: eNOS IP, hsp90 immunoblot, HUVEC lysates (effect reversed by mevalonate)
[8] = molecular target: T1, endothelial nitric oxide synthase (eNOS), endogenous, human umbilical vein endothelial cells (HUVECs) (human); test: co-IP in CHAPS or Triton/molybdate lysis buffer, unstimulated HUVECs (data not shown)
[9] = molecular target: T2, endothelial nitric oxide synthase (eNOS), endogenous, mouse cardiac microvascular endothelial cells (CMECs) (mouse) (UniProt P70313); test: eNOS IP, hsp90 immunoblot, atorvastatin-treated CMEC lysates
T2 sequence (looked up): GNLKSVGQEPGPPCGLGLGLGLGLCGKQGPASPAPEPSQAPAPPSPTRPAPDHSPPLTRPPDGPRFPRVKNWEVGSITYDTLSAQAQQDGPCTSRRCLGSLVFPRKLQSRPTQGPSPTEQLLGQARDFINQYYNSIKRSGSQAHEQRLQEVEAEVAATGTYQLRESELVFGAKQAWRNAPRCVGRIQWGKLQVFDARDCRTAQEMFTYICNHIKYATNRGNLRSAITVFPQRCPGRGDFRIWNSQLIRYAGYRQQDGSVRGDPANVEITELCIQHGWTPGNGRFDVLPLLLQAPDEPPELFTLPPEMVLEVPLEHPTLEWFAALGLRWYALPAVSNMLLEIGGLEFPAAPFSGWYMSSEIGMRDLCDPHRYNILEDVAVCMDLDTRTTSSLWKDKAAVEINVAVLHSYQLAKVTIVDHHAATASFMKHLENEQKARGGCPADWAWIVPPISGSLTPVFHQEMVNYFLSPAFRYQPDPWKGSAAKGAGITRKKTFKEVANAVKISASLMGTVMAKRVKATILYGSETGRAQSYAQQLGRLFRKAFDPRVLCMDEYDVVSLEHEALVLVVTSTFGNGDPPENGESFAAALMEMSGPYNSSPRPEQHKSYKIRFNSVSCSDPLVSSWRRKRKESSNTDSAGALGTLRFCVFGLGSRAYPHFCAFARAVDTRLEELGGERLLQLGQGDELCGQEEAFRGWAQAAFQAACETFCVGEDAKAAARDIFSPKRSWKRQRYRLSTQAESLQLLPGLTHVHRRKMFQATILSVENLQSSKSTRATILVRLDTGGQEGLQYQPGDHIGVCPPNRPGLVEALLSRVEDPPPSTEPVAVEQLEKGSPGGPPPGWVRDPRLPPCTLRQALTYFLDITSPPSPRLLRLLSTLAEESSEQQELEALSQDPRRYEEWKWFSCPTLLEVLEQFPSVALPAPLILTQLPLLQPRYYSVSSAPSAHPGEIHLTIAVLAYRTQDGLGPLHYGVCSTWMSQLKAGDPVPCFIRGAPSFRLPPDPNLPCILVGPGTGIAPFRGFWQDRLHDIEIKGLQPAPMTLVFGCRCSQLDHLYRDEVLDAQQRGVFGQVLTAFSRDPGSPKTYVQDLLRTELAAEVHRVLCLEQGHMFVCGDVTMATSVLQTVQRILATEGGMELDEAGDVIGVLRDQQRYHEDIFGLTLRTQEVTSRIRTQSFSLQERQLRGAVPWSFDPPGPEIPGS

[10] = molecular target: T2, endothelial nitric oxide synthase (eNOS), endogenous, mouse cardiac microvascular endothelial cells (CMECs) (mouse); test: eNOS IP, hsp90 immunoblot, lysates of ECs recovered from Matrigel (CMECs per paragraph 92)

Measured: binding

Akt, endogenous, human umbilical vein endothelial cells (HUVECs) (from UniProt P31749 1-480) (enzyme)
binds: [1]

hsp90, endogenous, human umbilical vein endothelial cells (HUVECs) (from UniProt P08238 2-724)
not listed: [1] | [9] | [10]
binds: all other assays above

hsp90, endogenous, mouse cardiac microvascular endothelial cells (CMECs) (from UniProt Q71LX8 2-724)
binds: [9] | [10]
